# Reference: patent US20030003563
# By UniProt entry, the sequences of proteins in these tests, tags left out. Residues count along the entry.
# UniProt P42224, 2-750 W37A: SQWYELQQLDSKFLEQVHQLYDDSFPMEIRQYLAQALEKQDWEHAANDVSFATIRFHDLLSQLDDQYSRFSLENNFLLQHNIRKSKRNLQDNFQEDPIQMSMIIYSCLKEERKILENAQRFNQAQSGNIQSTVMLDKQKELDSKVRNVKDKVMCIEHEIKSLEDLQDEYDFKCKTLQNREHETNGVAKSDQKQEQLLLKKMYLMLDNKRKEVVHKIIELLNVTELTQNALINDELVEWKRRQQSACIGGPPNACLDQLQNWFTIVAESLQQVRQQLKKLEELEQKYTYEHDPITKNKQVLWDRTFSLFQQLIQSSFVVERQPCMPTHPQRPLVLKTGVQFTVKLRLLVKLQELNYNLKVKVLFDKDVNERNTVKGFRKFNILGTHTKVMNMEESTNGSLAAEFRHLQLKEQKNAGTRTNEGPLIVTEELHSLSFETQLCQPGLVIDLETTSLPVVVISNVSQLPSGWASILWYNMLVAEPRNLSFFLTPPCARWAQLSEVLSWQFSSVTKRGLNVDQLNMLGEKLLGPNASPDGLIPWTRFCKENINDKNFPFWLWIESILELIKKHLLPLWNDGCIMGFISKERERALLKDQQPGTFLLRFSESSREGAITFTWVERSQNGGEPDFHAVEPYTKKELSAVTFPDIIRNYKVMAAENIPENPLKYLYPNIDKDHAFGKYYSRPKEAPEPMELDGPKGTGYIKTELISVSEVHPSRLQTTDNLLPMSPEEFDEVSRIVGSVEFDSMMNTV
# A weaker result is weaker than the reference pair of the same experiment.
# Molecular target: STAT-1alpha W37A (Tyr-phosphorylated) (Homo sapiens) (UniProt P42224)
# Test: EMSA
# Settings: binds as dimer, very little 2x(dimer) complex; completely displaced by unlabelled oligo; same buffer; purified recombinant protein; protein details: C-terminal 6xHis, baculovirus insect cells
sequence,measurement,value
"GCCAGTCAGTTCCCGTCAATGCATCAGGTTCCCGTCAATGCAT (double strand) [tandem c-fos STAT element, 10 bp spacing]",binding result,binds more weakly
